One assay concerns the target Flag-SREBP1c (rat) (UniProt P56720). The experiment in a line: co-IP; HEK293 cells cotransfected with Flag-SREBP1c and HDM2 for 48 h; lysate with anti-Flag M2 affinity beads 16 h at 4 °C; eluted with 1× FLAG peptide; Western blotting. On the technique in general: Immunoblotting shows a protein as a band on a membrane.
In assay [1] the target is sterol regulatory element-binding protein 1c (human (endogenous in HepG2)) (UniProt P36956). The experiment in a line: co-IP; endogenous proteins; HepG2 cells exposed to OA (500 μM) for 24 h; nuclear lysates immunoprecipitated by anti-SREBP1c antibody; immunoblotting.
Assay [2] concerns the target neural precursor cell-expressed, developmentally downregulated 8 (human (endogenous in HepG2)) (UniProt Q15843). The experiment in a line: co-IP; as a1, HepG2 cells treated with OA and the neddylation inhibitor MLN4924.
The target is the same in assay [3]. The experiment in a line: co-IP; endogenous proteins; HepG2 cells treated with OA (500 μM) for 24 h; lysate (1.5 mg) with anti-NEDD8 (10 μg) at 4 °C overnight, Protein A/G Sepharose beads; Western blotting.
The target is the same in assay [4]. The experiment in a line: condition: only with an siRNA for the E1 enzyme APPBP1; co-IP; as a1, HepG2 cells treated with OA and an siRNA for the E1 enzyme APPBP1.

Protein sequences, listed by entry. Tags and fused reporters are not part of them. Lines headed by an entry give the natural chain unless they say otherwise; changes in a name come on top. Residues count along the entry.
UniProt P56720: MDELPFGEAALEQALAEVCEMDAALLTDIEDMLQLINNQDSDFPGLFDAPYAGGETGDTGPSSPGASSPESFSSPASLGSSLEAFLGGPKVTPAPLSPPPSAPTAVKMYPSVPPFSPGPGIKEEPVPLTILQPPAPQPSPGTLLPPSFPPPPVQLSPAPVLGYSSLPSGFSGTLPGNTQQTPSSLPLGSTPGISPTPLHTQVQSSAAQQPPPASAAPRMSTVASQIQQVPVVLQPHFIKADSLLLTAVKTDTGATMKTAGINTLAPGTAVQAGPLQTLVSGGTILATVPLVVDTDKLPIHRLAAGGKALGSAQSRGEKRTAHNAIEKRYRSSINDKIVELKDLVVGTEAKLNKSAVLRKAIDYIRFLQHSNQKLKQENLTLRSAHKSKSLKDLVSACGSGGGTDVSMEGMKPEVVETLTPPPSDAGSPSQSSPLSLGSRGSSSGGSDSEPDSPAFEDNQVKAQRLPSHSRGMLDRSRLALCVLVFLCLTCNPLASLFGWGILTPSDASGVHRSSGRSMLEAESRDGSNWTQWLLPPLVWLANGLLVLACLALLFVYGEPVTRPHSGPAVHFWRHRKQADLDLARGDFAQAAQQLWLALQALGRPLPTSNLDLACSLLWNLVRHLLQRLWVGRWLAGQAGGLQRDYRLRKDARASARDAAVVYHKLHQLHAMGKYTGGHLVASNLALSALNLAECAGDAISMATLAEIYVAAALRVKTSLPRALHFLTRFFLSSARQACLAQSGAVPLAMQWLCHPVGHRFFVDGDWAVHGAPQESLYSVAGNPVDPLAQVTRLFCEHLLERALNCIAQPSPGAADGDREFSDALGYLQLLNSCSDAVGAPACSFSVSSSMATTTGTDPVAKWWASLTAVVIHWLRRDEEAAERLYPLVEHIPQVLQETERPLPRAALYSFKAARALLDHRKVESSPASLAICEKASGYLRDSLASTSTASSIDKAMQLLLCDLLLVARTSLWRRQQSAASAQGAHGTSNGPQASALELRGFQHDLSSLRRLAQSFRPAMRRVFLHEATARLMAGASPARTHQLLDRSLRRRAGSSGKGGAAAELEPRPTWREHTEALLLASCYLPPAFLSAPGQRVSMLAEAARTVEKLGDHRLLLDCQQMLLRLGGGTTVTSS
UniProt P36956: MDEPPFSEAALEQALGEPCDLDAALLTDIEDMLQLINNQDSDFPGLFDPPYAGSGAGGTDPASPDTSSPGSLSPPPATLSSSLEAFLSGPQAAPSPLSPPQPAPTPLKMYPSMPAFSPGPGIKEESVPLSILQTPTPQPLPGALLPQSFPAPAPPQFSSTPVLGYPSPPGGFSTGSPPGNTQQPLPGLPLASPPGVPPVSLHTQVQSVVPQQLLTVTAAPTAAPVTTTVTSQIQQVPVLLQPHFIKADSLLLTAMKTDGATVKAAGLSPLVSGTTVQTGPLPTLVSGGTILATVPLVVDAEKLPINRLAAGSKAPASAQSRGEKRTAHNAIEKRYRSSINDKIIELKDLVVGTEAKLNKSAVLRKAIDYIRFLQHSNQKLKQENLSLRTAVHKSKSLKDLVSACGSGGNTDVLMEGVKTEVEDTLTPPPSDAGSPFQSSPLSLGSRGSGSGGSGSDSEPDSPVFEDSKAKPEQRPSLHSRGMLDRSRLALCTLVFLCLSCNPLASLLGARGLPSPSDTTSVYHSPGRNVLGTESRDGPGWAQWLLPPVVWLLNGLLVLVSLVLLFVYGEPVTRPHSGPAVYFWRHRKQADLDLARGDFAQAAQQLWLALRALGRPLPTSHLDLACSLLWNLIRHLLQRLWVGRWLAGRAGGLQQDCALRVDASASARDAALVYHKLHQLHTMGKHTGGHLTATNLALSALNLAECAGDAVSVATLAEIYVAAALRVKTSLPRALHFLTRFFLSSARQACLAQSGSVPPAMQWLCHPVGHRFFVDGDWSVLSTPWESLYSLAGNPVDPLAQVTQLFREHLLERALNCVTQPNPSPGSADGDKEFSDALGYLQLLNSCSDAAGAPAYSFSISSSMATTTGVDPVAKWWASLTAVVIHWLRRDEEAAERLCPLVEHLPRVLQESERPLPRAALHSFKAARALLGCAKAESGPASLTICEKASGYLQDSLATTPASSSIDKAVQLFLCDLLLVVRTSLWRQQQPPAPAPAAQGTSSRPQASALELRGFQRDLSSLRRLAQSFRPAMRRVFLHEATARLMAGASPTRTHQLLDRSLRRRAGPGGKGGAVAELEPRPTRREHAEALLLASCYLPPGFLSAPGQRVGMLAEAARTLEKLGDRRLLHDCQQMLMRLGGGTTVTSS
UniProt Q15843, residues 1-76: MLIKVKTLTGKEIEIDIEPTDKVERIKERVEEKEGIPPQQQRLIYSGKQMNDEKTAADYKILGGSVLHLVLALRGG
UniProt Q00987: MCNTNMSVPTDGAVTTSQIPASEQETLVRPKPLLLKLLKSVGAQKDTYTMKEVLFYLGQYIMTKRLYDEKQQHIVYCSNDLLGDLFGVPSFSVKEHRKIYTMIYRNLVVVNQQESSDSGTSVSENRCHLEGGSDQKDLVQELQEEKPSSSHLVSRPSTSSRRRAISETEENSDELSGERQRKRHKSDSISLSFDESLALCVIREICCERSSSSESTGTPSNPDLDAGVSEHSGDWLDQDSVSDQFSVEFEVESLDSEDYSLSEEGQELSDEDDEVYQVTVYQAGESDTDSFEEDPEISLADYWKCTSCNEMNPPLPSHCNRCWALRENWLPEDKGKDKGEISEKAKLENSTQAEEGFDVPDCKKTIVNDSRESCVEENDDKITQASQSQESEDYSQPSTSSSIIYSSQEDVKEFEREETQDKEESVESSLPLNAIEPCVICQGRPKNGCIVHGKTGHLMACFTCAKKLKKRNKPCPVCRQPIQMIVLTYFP

Results are given in words; binding and its absence hold for the method and conditions named. Binding seen in cells or lysates may run through a third protein. For part of these data: A result given as binding can be weak or reduced; the word gives no strength.

Consider “HDM2 (pcHDM2) (from UniProt Q00987 1-491)”, for which, in the assay with Flag-SREBP1c (rat), the binding entry was “binds”.

Consider “human homolog of mouse double minute 2 (from UniProt Q00987 1-491)”, for which the binding result in assay [1] is on record as “binds”.

Regarding “neural precursor cell-expressed, developmentally downregulated 8 (from UniProt Q15843 1-76)”, the binding result in assay [1] is “binds”.

In the case of “sterol regulatory element-binding protein 1c (from UniProt P36956-3)”, the binding entry in assay [2] is given as “no binding (only with MLN4924)”; in assay [3], “binds”; in assay [4], “no binding”.
